Data from paper PMC4489885.
No constants are given. Whether binding was seen depends on the method and setting. In cells and extracts the contact can be indirect. Some entries that bind do so weakly or less than the wild type. Blank lines part the entries; values can stand above or below the substance they belong to.

By UniProt entry, the sequences of proteins in these tests, tags left out.
UniProt Q9Y3Z3: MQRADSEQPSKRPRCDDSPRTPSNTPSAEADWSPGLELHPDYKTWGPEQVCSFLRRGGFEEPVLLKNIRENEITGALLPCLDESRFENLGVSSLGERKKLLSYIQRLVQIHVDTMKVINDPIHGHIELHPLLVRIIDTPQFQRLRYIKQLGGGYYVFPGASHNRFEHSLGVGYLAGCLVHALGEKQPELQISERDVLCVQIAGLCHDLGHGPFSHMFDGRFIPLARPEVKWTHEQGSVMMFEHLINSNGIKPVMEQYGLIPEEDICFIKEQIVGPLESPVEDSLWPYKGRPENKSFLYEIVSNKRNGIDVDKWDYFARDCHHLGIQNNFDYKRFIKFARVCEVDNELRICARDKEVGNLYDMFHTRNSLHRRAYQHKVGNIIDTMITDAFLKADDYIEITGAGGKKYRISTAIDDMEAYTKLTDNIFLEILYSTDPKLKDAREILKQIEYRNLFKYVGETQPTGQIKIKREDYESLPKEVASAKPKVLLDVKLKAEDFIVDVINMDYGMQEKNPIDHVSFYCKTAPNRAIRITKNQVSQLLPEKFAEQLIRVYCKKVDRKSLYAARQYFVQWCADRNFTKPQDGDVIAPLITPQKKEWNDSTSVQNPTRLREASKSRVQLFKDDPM
UniProt Q9UN81: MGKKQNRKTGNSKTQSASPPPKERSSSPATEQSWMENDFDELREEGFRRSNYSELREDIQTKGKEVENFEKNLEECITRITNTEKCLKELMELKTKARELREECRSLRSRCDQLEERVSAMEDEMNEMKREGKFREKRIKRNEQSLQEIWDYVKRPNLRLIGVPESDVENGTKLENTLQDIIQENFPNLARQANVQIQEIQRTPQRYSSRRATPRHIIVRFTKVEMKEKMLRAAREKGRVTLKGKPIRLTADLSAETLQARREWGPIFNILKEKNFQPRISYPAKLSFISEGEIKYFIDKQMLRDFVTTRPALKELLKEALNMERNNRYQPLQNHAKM
UniProt Q13283: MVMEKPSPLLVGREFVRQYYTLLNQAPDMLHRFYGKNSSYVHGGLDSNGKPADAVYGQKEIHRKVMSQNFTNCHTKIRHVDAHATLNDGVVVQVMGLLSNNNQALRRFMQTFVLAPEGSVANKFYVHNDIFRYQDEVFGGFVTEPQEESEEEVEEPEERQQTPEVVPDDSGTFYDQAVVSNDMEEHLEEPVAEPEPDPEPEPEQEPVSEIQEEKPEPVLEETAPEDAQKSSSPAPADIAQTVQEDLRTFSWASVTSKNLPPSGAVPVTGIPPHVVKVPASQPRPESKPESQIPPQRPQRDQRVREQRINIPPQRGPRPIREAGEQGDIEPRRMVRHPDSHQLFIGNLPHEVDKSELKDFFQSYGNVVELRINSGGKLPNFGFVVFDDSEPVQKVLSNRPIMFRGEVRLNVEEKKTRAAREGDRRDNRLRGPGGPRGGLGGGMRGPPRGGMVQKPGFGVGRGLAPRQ

Legend:
[1] = biological target: Myc-SAMHD1 (human) (human) (UniProt Q9Y3Z3); test: co-IP; HeLa co-transfected with Myc-SAMHD1 and ORF1-Flag; Myc-SAMHD1 precipitated with anti-Myc antibody; western blot for ORF1
[2] = biological target: Flag-ORF1p (LINE-1 ORF1 protein) (human) (UniProt Q9UN81); test: co-IP; HeLa co-transfected with Flag-ORF1p and CMV-L1-neoRT; lysis and washes in RIPA buffer; anti-Flag M2 precipitation, 4 h on ice; with or without RNase A (100 ug/mL, 37°C, 30 min); western blot for ORF1p and G3BP1
Myc-G3BP1 = Myc-G3BP1 (UniProt Q13283); test: co-IP; HeLa co-transfected with Myc-G3BP1 and CMV-L1-neoRT; RIPA buffer; anti-Myc antibody and protein G-agarose; with or without RNase A; western blot for ORF1p
[3] = biological target: G3BP1 (endogenous) (human (endogenous in HeLa)) (UniProt Q13283); test: co-IP; HeLa co-transfected with CMV-L1-neoRT and with or without wild type Myc-SAMHD1 or SAMHD1-H233A; endogenous G3BP1 precipitated with anti-G3BP1 antibody, anti-rabbit IgG as control; western blot for ORF1

- binding [1]: no binding
Substance: Flag-ORF1p (LINE-1 ORF1 protein) (from UniProt Q9UN81 1-338)

- binding [2]: binds
Substance: G3BP1 (endogenous) (from UniProt Q13283 1-466)

- binding (Myc-G3BP1): binds
- binding [3]: binds
Substance: LINE-1 ORF1p expressed from CMV-L1-neoRT (from UniProt Q9UN81 1-338)
